# Patent US20130109738A1, “Control of Cardiac Growth, Differentiation and Hypertrophy” (The Board of Trustees of the Leland Stanford Junior …, priority 2010, published 2013)
# For at least one compound, name, drawing or mass did not settle the structure.
# System: cardiac hypertrophy
# Assay: Transaortic constriction (TAC) induced cardiac hypertrophy
# Format: in vivo, mouse
# Conditions: doxycycline food pellets, four weeks after TAC
structure (smiles),measurement,value
C[C@H]1c2cccc(O)c2C(=O)C2=C(O)[C@]3(O)C(=O)C(C(N)=O)=C(O)[C@@H](N(C)C)[C@@H]3[C@@H](O)[C@@H]21 [doxycycline],effect on degree of TAC-induced change of cardiomyocyte size,no effects
same,effect on degree of TAC-induced change of ventricular/body weight ratio,no effects
